According to publication PMC9402439:
These are yes or no findings as the source states them, for the method shown. Binding seen in cells or lysates may run through a third protein. Some results given as binding are weak or reduced against the parent protein; the word gives no strength. Sequences can lack the tags named with a protein.

B1: STN1 with N-terminal Myc tag (protein, UniProt Q9H668 1-368)
chain: MQPGSSRCEEETPSLLWGLDPVFLAFAKLYIRDILDMKESRQVPGVFLYNGHPIKQVDVLGTVIGVRERDAFYSYGVDDSTGVINCICWKKLNTESVSAAPSAARELSLTSQLKKLQETIEQKTKIEIGDTIRVRGSIRTYREEREIHATTYYKVDDPVWNIQIARMLELPTIYRKVYDQPFHSSALEKEEALSNPGALDLPSLTSLLSEKAKEFLMENRVQSFYQQELEMVESLLSLANQPVIHSASSDQVNFKKDTTSKAIHSIFKNAIQLLQEKGLVFQKDDGFDNLYYVTREDKDLHRKIHRIIQQDCQKPNHMEKGCHFLHILACARLSIRPGLSEAVLQQVLELLEDQSDIVSTMEHYYTAF
B2: TEN1 with N-terminal HA tag (protein, UniProt Q86WV5 1-123)
chain: MMLPKPGTYYLPWEVSAGQVPDGSTLRTFGRLCLYDMIQSRVTLMAQHGSDQHQVLVCTKLVEPFHAQVGSLYIVLGELQHQQDRGSVVKARVLTCVEGMNLPLLEQAIREQRLYKQERGGSQ

Assays:
[1] = biological target: T1, CTC1 with N-terminal 3×FLAG tag (human) (UniProt Q2NKJ3); assay: co-IP; successive anti-FLAG and anti-HA immunopurifications of 3×FLAG-CTC1, Myc-STN1 and HA-TEN1 from transfected HEK293T cells, 150 mM NaCl in the wash and elution buffers; subunits found by western blot and quantified against insect-cell standards
T1 sequence: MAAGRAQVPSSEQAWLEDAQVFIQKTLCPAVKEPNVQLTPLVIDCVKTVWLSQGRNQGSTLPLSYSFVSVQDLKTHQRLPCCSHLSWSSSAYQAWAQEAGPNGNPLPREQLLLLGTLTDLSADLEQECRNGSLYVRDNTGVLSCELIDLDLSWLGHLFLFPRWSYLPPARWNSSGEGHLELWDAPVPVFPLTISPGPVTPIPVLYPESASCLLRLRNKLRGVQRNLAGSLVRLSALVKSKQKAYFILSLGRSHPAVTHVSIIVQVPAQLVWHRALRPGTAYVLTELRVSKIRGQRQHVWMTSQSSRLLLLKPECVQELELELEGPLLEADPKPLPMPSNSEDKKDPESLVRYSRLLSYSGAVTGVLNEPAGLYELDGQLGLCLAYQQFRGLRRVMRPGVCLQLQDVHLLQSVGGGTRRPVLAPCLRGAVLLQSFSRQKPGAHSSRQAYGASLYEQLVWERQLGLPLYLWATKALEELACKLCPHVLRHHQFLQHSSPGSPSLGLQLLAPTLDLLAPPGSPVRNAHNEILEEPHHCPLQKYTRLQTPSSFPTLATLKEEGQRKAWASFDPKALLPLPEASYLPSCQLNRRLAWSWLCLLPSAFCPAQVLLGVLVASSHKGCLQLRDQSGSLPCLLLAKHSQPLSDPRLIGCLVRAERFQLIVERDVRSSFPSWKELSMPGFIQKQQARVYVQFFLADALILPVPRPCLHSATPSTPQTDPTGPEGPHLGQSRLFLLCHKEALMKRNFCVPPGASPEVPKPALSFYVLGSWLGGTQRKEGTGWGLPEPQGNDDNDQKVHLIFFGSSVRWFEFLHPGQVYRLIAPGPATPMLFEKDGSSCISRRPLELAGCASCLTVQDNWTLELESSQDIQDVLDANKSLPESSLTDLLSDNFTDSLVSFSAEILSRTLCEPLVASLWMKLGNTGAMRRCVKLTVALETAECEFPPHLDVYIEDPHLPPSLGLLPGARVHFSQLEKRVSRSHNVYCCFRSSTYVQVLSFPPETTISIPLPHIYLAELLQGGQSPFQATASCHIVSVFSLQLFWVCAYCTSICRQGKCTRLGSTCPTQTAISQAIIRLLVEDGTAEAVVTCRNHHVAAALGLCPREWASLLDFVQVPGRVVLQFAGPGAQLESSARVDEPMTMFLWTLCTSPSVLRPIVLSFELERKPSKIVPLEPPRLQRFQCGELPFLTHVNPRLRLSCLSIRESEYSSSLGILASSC

[2] = biological target: T2, TEN1 with N-terminal HA tag (human) (UniProt Q86WV5); assay: as above
T2 sequence: B2 chain

Row | Binder | binding [1] | binding [2]
1 | B1 | binds | binds
2 | B2 | binds | –
